These are yes or no findings as the source states them, for the method shown. For part of these data: Binding seen in cells or lysates may run through a third protein. For part of these data: A result given as binding can be weak or reduced; the word gives no strength. Sequences can lack the tags named with a protein.
T1: Dam1 (yeast outer kinetochore/microtubule-associated protein) fused with the N-terminal part of Venus (VN173) (yeast) (UniProt P53267)
T1 sequence: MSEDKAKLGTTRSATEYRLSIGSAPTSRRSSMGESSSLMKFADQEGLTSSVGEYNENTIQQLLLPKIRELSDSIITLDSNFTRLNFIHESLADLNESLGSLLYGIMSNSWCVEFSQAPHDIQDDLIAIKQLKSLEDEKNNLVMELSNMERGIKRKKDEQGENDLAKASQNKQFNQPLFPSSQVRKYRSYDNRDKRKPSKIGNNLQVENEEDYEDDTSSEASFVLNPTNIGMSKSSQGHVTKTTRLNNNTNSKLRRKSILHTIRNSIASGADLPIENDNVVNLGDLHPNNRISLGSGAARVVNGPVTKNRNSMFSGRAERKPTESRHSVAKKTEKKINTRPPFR

T2: Ipl1 (yeast Aurora kinase) fused with the N-terminal part of Venus (VN173) (yeast) (UniProt P38991)
T2 sequence: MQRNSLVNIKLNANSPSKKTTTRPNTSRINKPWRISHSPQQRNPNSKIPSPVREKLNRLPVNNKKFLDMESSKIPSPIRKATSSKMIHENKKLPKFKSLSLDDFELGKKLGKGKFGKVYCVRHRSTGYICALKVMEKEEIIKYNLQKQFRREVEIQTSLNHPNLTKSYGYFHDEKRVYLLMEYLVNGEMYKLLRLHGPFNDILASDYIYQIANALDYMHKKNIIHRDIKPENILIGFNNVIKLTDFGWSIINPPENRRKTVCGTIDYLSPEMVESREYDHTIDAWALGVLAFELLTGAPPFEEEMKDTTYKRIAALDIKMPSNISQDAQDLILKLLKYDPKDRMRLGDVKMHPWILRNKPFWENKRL

B1: His-tagged VirD5 (protein, UniProt Q9JN11 1-833)
chain: MTGKSKVHIRSSADTLPDGSITAPFSTGLSGDQADASFEAQTDYSQSTSVSFTYDGVKLGPAERAAYENWCEPGRPTWKDLIIKARVDPIDDVIWLRDLEEDTPSTFRYEGMPLGLGERKAYENWQEDAQPTWEDLVVSARMTELGRPHGITGEYTSLAGSKNTSSISLKRKRSNLIDDENSSGSFSYDGMKLGEAERSAYGDWAEAEPPTWKDLVLRARVSSINDSAWLFDSQTSSSSFEYNGVPLGEPERQALRQWQGDAQPTWEDLVVNARMAELCHAGWIEGQKGCFEKRGEALHASERGSQRPIVQRTDSSDSFLYDGRRLGAPERTAYERWSKRERPTWEDLILDAHQARIESDAVTTQAIGQSSSLVFLYEGKSLGCREREAYEKWRQPAQPRWQNLVVNARLAELDPSVWIADERDPLDDGDALGRPSYTSLTDRSDVPLDDQSIYHRSDLVREQVSESSQKQFAACSESETIPVSWFTASGLDANNTENIAASDPVDGTGGVKRLGSKSDRTVTASIHDVNSSTKRLLLNEFGLEAPRPSPEKTVRLRSDNIGTYGSRRNERMRLATETGAYESEHIFGFKAVHDTARATKEGRRLERPMPAYLEYKGLHRQHVGTGRGRTKLVGRGWPDDTSYRSDQRATLSDPVARSEGATASNGYQLNQLGYAHQLASDGLQSESPDGVALPIQVATTSYNYTVSRDPVLVPPDKNEAPQLLHLGPRGQTEAVLARETALTGKWPTLEREQQVYREFLALYDVKKDLEAKSVGVRQKKKEVSSALDRTARLIITSPSKARSEAETEKAIDELDDRRVYDPRDRAQDKAFKR

Tests used:
[1] = molecular target: T1, Dam1 (yeast outer kinetochore/microtubule-associated protein) fused with the N-terminal part of Venus (VN173) (yeast); assay: split reporter; BIFC in wild-type yeast cells (BY4743); VC173 on the N-terminus of VirD5 or its truncations, VN173 on the C-terminus of the kinetochore protein; 30°C, induction 1 h in MY medium lacking methionine; confocal microscopy
[2] = molecular target: T2, Ipl1 (yeast Aurora kinase) fused with the N-terminal part of Venus (VN173) (yeast); assay: as above
GST (empty GST) = assay: pull-down; GST-tagged proteins immobilized on Glutathione HiCap Matrix; purified His-tagged VirD5 in binding buffer (50 mM NaH2PO4, 150 mM NaCl, pH 7.2, 0.1% Triton X-100), 2 h at room temperature; Western blot with anti-His HRP antibody; both purified

Molecule	binding [1]	binding [2]	binding (GST (empty GST))
VirD5 from the nopaline strain C58 (BIFC fusion) (from UniProt Q9JN11)	binds	binds	
B1			no binding
